{
  "source": "paper PMC10180911",
  "molecular_target": "T1, SUN3, full-length, MYTH bait (Arabidopsis thaliana) (UniProt F4I316)",
  "T1 sequence": "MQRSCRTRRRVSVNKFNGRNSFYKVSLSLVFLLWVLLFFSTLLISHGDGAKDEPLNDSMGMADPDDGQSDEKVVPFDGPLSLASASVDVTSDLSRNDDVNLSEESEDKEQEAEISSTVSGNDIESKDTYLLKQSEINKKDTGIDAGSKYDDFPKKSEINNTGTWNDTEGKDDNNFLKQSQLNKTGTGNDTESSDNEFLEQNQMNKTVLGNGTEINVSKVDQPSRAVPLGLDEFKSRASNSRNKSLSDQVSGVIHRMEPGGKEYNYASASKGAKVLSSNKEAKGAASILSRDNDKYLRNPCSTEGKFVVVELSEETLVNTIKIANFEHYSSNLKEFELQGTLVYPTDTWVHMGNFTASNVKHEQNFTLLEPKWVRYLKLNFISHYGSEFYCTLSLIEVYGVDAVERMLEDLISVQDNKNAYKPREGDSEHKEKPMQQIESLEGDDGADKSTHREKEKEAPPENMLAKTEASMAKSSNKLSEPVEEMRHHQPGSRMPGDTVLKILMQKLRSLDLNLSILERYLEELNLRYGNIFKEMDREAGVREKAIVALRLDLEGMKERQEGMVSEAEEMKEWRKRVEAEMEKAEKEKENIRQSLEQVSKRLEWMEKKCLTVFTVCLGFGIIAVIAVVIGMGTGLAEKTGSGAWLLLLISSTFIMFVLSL",
  "assay": "two-hybrid; split-ubiquitin MYTH, drop tests of named pairs on permissive (YNB -Leu -Trp) and test medium (YNB -Leu -Trp -Ade -His); strain NMY51; bait plasmid pBT3N, prey plasmid pPR3N",
  "note": "Results are given in words; binding and its absence hold for the method and conditions named.",
  "data": [
    {"substance": "MYB domain of maMYB, MYTH prey (Arabidopsis thaliana) (domain or fragment)", "values": [
      {"measurement": "binding", "value": "no binding"}
    ]}
  ]
}
